Here are results for 59 compounds from PubChem BioAssay AID2685 (National Center for Advancing Translational Sciences (NCATS), 2010).

As a reminder, the AC50 is the concentration at which the activity in the assay is half-maximal. Low readings indicate greater potency, high ones weaker potency.

The list shows a part of the results. Further columns of the screen follow, without active or inactive calls. Compounds called inactive in the main read-out are mostly missing here. Words in brackets tell the shape of the fitted curve; partial curves, single points and poor fits give uncertain potencies.

This assay is described as follows: qHTS Assay for Lipid Storage Modulators in Drosophila S3 Cells.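 On cell number change: cells counted by Cell Tracker Red CMTPX staining in the red channel.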 The following applies: BODIPY lipid droplet fluorescence, 18-24 h; for cell number change: measured here: cell count max response, cells fed with added oleic acid. Put shortly: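 Drosophila S3 cells loaded with oleic acid (400 uM, as added) and compounds at several concentrations; lipid droplets imaged by 488-nm laser-scanning cytometry, 500–530 nm intensity and object ratio to cell channel. Percent activity normalized to 20 uM Triacsin C.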
Background: Quantitative high-throughput screening tests each substance at several concentrations.

Setting [1] is: measured here: lipid fluorescence (Fed channel) AC50, cells fed with added oleic acid.
The mark [2] stands for this setting: measured here: cell number channel AC50, cells fed with added oleic acid.

As for `CC1=NN(C(=O)c2ccccc2F)C(O)(c2ccc(Cl)cc2)C1` (configuration not stated), the cell number change is -17.3%. The AC50 under setting [1] was 29.1 µM [falling, single point].

With `CC1(C)NC(=O)N(CC(O)CN(c2ccccc2)S(=O)(=O)c2ccc([N+](=O)[O-])cc2)C1=O` (configuration not stated), the cell number change is -23.2%.

As for `Nc1ccccc1Nc1cc(-c2ccccc2)nn1-c1ccccc1`, the cell number change was -25.7%. Further, the concentration at half-maximal activity (AC50) under setting [1] was 14.6 µM [falling, single point].

Turning to `CC1CCN(C(=O)CNC(=O)Cc2ccccc2)CC1`, the cell number change stood at 66.8%. Besides, the half-maximal activity concentration (AC50) under setting [2] was 29.1 µM [rising, single point]. Moreover, the AC50 under setting [1] is 0.461 µM [rising, partial curve, poor fit].

As for `O=C1CSC(c2ccccc2Cl)N1` (configuration not stated), the cell number change amounted to 34%. In addition, under setting [2], the AC50 is 1.84 µM [rising, full curve]. Further, under setting [1], the AC50 was 2.06 µM [rising, full curve].

`CCCCCCCCc1c(O)nc(-n2[nH]c(C)c(CCO)c2=O)[nH]c1=O`: the cell number change is -31.2%. The AC50 under setting [2] is 4.11 µM [falling, full curve]. Also, the concentration at half-maximal activity (AC50) under setting [1] was 29.1 µM [falling, single point].

On to `CCC(NC(=O)c1cc(COc2ccc(C)nc2)on1)c1ccc(C)cc1` (configuration not stated), for which the cell number change was -4.86%. The concentration at half-maximal activity (AC50) under setting [1] was 29.1 µM [falling, single point].

As to `Cc1ccccc1OCCCCn1cnc2ccccc21`, the cell number change was -68.3%. Besides, the half-maximal activity concentration (AC50) under setting [2] is 29.1 µM [falling, single point]. Also, the half-maximal activity concentration (AC50) under setting [1] was 11.6 µM [falling, single point].

In the case of `Cc1csc2ncc(C(=O)Nc3ccc(C(F)(F)F)cc3)c(=O)n12`, the cell number change stood at 61%. For the same compound, under setting [2], the concentration at half-maximal activity (AC50) was 0.13 µM [rising, full curve]. Moreover, the AC50 under setting [1] was 2.59 µM [rising, full curve].

As to `COC(=O)c1c(NC(=O)c2c(-c3ccccc3Cl)noc2C)sc2c1CCC2`, the cell number change stood at 146%. Under setting [2], the AC50 is 0.366 µM [rising, full curve]. The concentration at half-maximal activity (AC50) under setting [1] is 0.146 µM [rising, full curve].

On to `CCN1C(=O)C(O)(CC(=O)C(C)(C)C)c2cc(Br)ccc21` (configuration not stated), for which the cell number change amounted to 10.6%. In addition, the concentration at half-maximal activity (AC50) under setting [1] is 0.82 µM [falling, single point].

As for `CN(Cc1ccccc1)c1ccc([N+](=O)[O-])cc1C(=O)O`, the cell number change was -20.6%.

As for `Cc1ccnc2nc(C(=O)OCCOc3ccccc3)nn12`, the cell number change was -7.21%. Moreover, the AC50 under setting [1] is 0.0259 µM [falling, full curve].

On to `CC(C)N(Cc1nc(-c2ccccc2)no1)C(=O)COc1ccccc1`, for which the cell number change is 137%. Besides, the half-maximal activity concentration (AC50) under setting [2] is 9.2 µM [rising, partial curve]. Also, the AC50 under setting [1] is 7.31 µM [rising, partial curve].

In the case of `CCOc1ccccc1C(=O)OCC(=O)NCCc1ccc(OC)cc1`, the cell number change turned out to be 40.5%. The AC50 under setting [2] was 0.0164 µM [rising, full curve, poor fit]. Besides, the concentration at half-maximal activity (AC50) under setting [1] is 25.9 µM [rising, partial curve, poor fit].

Take `CN(C1=C(N2CCCCC2)C(=O)c2ccccc2C1=O)c1ccccc1`: the cell number change was -88.7%. Besides, the AC50 under setting [2] is 4.61 µM [falling, full curve]. Moreover, the AC50 under setting [1] was 16.4 µM [falling, partial curve].

Take `NC(=O)c1c(NC(=O)c2ccc([N+](=O)[O-])o2)sc2c1CCCC2`: the cell number change is -0.952%. In addition, the AC50 under setting [2] is 0.0731 µM [rising, partial curve, poor fit].

With `CC(C)CNC(=O)C(=O)NCc1ccccc1`, the cell number change came to 8.1%. Moreover, the AC50 under setting [1] is 0.731 µM [rising, partial curve].

As for `Cc1cccc(NC(=O)c2ccc3c(=O)n(CC4CCCO4)c(=S)[nH]c3c2)c1` (configuration not stated), the concentration at half-maximal activity (AC50) under setting [1] is 2.59 µM [falling, full curve].

For `Cc1cccc(N2CCN(c3ccc(C(N)=O)cc3[N+](=O)[O-])CC2)c1C`, the cell number change is 18.4%. Under setting [1], the AC50 was 6.51 µM [falling, single point].

For the compound `Cc1ccc(NC(=O)c2cccc(S(=O)(=O)N3CCCCC3)c2)cc1`, the cell number change is -11.8%.

Turning to `Cc1[nH][nH]c(=O)c1C=NCc1cccc(C(F)(F)F)c1`, the cell number change is -19.1%.

Consider `CCOc1ccc(Br)cc1S(=O)(=O)N1CCC(C(N)=O)CC1`, for which the cell number change came out at 82.4%. The AC50 under setting [2] is 20.6 µM [rising, single point].

On to `CCc1nnc(NS(=O)(=O)c2ccc(N3C(=O)C4CC=C(Cl)CC4C3=O)cc2)s1` (configuration not stated), for which the cell number change turned out to be 6.79%. Besides, the half-maximal activity concentration (AC50) under setting [1] is 29.1 µM [rising, single point].

For `CCOC(=O)CSc1nc(-c2ccncc2)ccc1C#N`, the cell number change was 0.6%. Further, under setting [1], the half-maximal activity concentration (AC50) was 0.326 µM [rising, partial curve, poor fit].

As to `CSc1nc(-c2ccccc2)nc(SC)c1C(C)=O`, the cell number change came out at 1.35%. The AC50 under setting [1] was 29.1 µM [rising, single point].

With `O=C(Nc1ccncc1)c1ccc(Cl)c(S(=O)(=O)N2CCCCC2)c1`, the cell number change is -53.8%. Also, under setting [2], the AC50 was 20.6 µM [falling, partial curve]. Under setting [1], the half-maximal activity concentration (AC50) is 3.66 µM [falling, partial curve, poor fit].

Consider `O=C(OCCN1CCCCC1)c1cc2ccccc2o1`, for which the cell number change was determined as 36.1%. Under setting [2], the half-maximal activity concentration (AC50) is 32.6 µM [rising, single point]. Also, the half-maximal activity concentration (AC50) under setting [1] was 5.8 µM [rising, single point].

`O=C(CN1CCCC1)NC(=O)NC1CCCC1`: the cell number change stood at 60.9%. For the same compound, the AC50 under setting [2] is 29.1 µM [rising, single point].

Regarding `OCCN1CCN(C(=S)c2ccc(Cl)c(Cl)c2)CC1`, the cell number change is -165%. The half-maximal activity concentration (AC50) under setting [2] is 29.1 µM [falling, single point].

As to `CC(C)N(C(=NCc1ccccc1)NC(=O)c1ccccc1)C(C)C`, under setting [1], the AC50 is 32.6 µM [rising, single point].

`COc1ccc(OC)c(NC(=O)CS(=O)(=O)Cc2ccccc2)c1`: the cell number change stood at 0.552%. In addition, the concentration at half-maximal activity (AC50) under setting [1] was 29.1 µM [rising, single point].

For the compound `O=C(Nc1ccc(S(=O)(=O)Nc2nccs2)cc1)C1CC(=O)N(c2ccc(Cl)cc2)C1` (configuration not stated), the cell number change is 16.7%.

For `Cc1ccc2c(COC(=O)c3ccccc3F)cc(=O)oc2c1`, the cell number change is 45.7%. In addition, the AC50 under setting [2] is 25.9 µM [rising, single point]. Also, the AC50 under setting [1] is 29.1 µM [rising, single point].

Consider `CCN=C1S/C(=C\c2cn(CC)c3ccccc23)C(=O)N1CC`, for which the cell number change turned out to be 18.1%. Further, under setting [1], the AC50 was 1.84 µM [rising, full curve].

Consider `CC(C)N1CCN(Cc2cccn2-c2nccs2)CC1CCO` (configuration not stated), for which the cell number change turned out to be 7.6%. The AC50 under setting [1] is 16.4 µM [falling, single point].

With `CCCCC(=O)Nc1ccc(NC(=O)C2CC2)cn1`, the cell number change came to 24.8%. Besides, the AC50 under setting [1] is 13 µM [rising, partial curve].

`CCCCn1c(SCC(=O)N2CCCCC2)nc2cc(S(N)(=O)=O)ccc21`: the cell number change is -28.9%. Also, the AC50 under setting [1] is 29.1 µM [falling, single point].

Regarding `Cc1cc(C)cc(-n2nnc(C(=O)NCc3ccccc3Cl)c2N)c1`, the cell number change is -6.32%. Under setting [1], the concentration at half-maximal activity (AC50) is 23.1 µM [falling, single point].

In the case of `COC(=O)C1=C(C)N(C)C(C)=C(C(=O)OC)C1c1cccc(Br)c1`, the cell number change stood at 4.69%. In addition, the AC50 under setting [1] is 2.91 µM [rising, partial curve].

With `Cc1csc2ncc(C(=O)Nc3cccc(C(F)(F)F)c3)c(=O)n12`, the cell number change came to 68.4%. Moreover, under setting [2], the AC50 is 23.1 µM [rising, partial curve, poor fit]. In addition, the AC50 under setting [1] was 20.6 µM [rising, partial curve].

As to `O=C(Nc1nc(-c2ccc(S(=O)(=O)N3CCOCC3)cc2)cs1)c1ccccc1`, the cell number change is -18.2%. Besides, the AC50 under setting [1] was 20.6 µM [falling, single point].

Take `O=C(CSC(=S)N1CCCC1)N1CCN(S(=O)(=O)c2cccc(F)c2)CC1`: the cell number change came out at 21%. In addition, the concentration at half-maximal activity (AC50) under setting [1] is 18.4 µM [falling, single point].

Regarding `Cc1nc(C(=O)N2CCCC(C(=O)c3ccc(Cl)cc3)C2)cs1` (configuration not stated), the cell number change was found to be 16.7%.

Regarding `CN(C)CCN1C(=O)c2oc3ccc(F)cc3c(=O)c2C1c1ccncc1` (configuration not stated), the cell number change is -22.8%. In addition, under setting [2], the concentration at half-maximal activity (AC50) is 0.651 µM [falling, full curve, poor fit]. The AC50 under setting [1] was 16.4 µM [falling, partial curve].

As to `CCOC(=O)c1cnc2ccc(Br)cc2c1NCC(C)O` (configuration not stated), the cell number change turned out to be 0.527%. Further, the AC50 under setting [1] is 0.58 µM [rising, single point].

`CCC(C)NC(=O)CNC(=O)Cn1c(C)cc2ccccc2c1=O` (configuration not stated): the cell number change was -23%. Further, the AC50 under setting [1] was 29.1 µM [falling, single point].

Take `O=C1C(Cc2ccccc2)C(c2ccccc2)N1c1ccccc1` (configuration not stated): the cell number change is -17.5%.

Consider `CN(C)S(=O)(=O)c1cccc(NC(=O)COc2ccc3ccccc3c2)c1`, for which the cell number change was -14.8%. Also, under setting [1], the concentration at half-maximal activity (AC50) is 10.3 µM [falling, partial curve, poor fit].

With `O=C(CN1CC(c2ccccc2)CC1=O)N/N=C/c1cc(Br)ccc1O` (configuration not stated), the cell number change was -5.13%. Also, the concentration at half-maximal activity (AC50) under setting [1] was 29.1 µM [falling, single point].

`COC(=O)C1CCN(C(=O)COc2ccc(N(C)S(=O)(=O)c3ccc(C)cc3)cc2)CC1`: the cell number change is -12.7%.

`CCCCN(CCCC)S(=O)(=O)c1ccc(OC)c2ncccc12`: the cell number change is -25.8%. In addition, the AC50 under setting [1] was 6.51 µM [rising, single point].

For `CC(=O)N(/N=C1\Sc2ccccc2C1=O)c1ccccc1C`, under setting [1], the AC50 is 29.1 µM [falling, single point].

On to `O=[N+]([O-])c1ccccc1-c1cc(-c2cc(Cl)ccc2O)n[nH]1`, for which the cell number change is -43.9%. In addition, the AC50 under setting [2] is 20.6 µM [falling, partial curve]. Further, the AC50 under setting [1] was 18.4 µM [falling, single point].

`O=C1Nc2ccc([N+](=O)[O-])cc2OC1CCN1CCCC1` (configuration not stated): the cell number change was 1.94%. In addition, under setting [1], the AC50 is 0.517 µM [rising, partial curve, poor fit].

Take `COc1ccc(N2CCN(C(=O)CN(c3cccc(Br)c3)S(C)(=O)=O)CC2)cc1`: the cell number change worked out at 29.6%.

Turning to `COc1cc(OC)cc(C(=O)Nc2ccccc2C(=O)NC2CC2)c1`, the cell number change turned out to be 27.8%. Besides, the concentration at half-maximal activity (AC50) under setting [2] was 0.82 µM [rising, full curve, poor fit]. Further, under setting [1], the half-maximal activity concentration (AC50) is 3.26 µM [rising, partial curve].

In the case of `CCCN1CCn2c3c(c4cc(Br)ccc42)CCCC31` (configuration not stated), under setting [1], the concentration at half-maximal activity (AC50) was 29.1 µM [falling, single point].

On to `C=CCOC(=O)C1=C(C)NC(=O)NC1c1cc(Cl)cc(Cl)c1OC` (configuration not stated), for which the cell number change was -42.1%. In addition, the AC50 under setting [2] was 13 µM [falling, partial curve]. Further, under setting [1], the half-maximal activity concentration (AC50) was 1.84 µM [falling, full curve].
